{"source": "PubChem BioAssay AID198", "about": "(DTP/NCI, 2004)", "system": "B16 melanoma ip, C57BL/6 mice, median survival T/C", "assay": "NCI In Vivo Anticancer Drug Screen. Data for tumor model B16 Melanoma (intraperitoneal) in C57BL/6 mice", "conditions": "T/C endpoint: median survival time, schedule: Q01DX009 (ip), vehicle: saline sonified, higher T/C = longer survival", "method": "The antitumor activity of compounds was measured in mice bearing transplantable tumors. Survival or tumor size were measured and the results are expressed as the measurement made in the treated group (T) divided by the measurement made in the vehicle treated control group (C). The tumor model used in this assay is B16 Melanoma (intraperitoneal) in C57BL/6 mice", "note": "The list does not hold the whole screen: it gathers some chemical classes. Other doses and runs of a compound may be missing. T/C gives the treated animals as a percentage of the vehicle group. For survival time, the PubChem record calls one and a half times the control and up active, and a quarter to a half above the control has no call in these data; cut-offs in other NCI protocols can differ. Schedule codes are those of the source, taken here to give the interval after Q, in days (D) or hours (H), and the number of doses after X. Some entries show no survivor count and are marked so; the dose need not have been tolerated."}
{"molecule": "CC(=O)OCC12CCC(C)=CC1OC1C(O)C(OC(C)=O)C2(C)C12CO2", "note": "(stereo not given)", "values": [{"measurement": "T/C", "setting": "dose: 0.13 mg/kg/injection", "value": "108 % of control [survivor count not shown]"}, {"measurement": "T/C", "setting": "dose: 0.25 mg/kg/injection", "value": "114 % of control [survivor count not shown]"}, {"measurement": "T/C", "setting": "dose: 0.5 mg/kg/injection", "value": "117 % of control [survivor count not shown]"}, {"measurement": "T/C", "setting": "dose: 1.0 mg/kg/injection", "value": "111 % of control [survivor count not shown]"}, {"measurement": "T/C", "setting": "dose: 2.0 mg/kg/injection", "value": "102 % of control [survivor count not shown]"}]}
